US20140296968A1, “IMPLANTABLE VASCULAR STENT” (Translumina GmbH, priority 2011, published 2014)
At least one compound was matched to its structure with a doubt left.

Test: in vitro dissolution of pure rapamycin coatings from the stent surface
Assay type: physicochemical
Settings: depending on the thickness of the layer

## CO[C@H]1C[C@@H]2CC[C@@H](C)[C@@](O)(O2)C(=O)C(=O)N2CCCC[C@H]2C(=O)O[C@H]([C@H](C)C[C@@H]2CC[C@@H](O)[C@H](OC)C2)CC(=O)[C@H](C)/C=C(\C)[C@@H](O)[C@@H](OC)C(=O)[C@H](C)C[C@H](C)/C=C/C=C/C=C/1C [rapamycin]
  time in which rapamycin is dissolved from the stent surface: 4-6 weeks
